The target in one experiment is T1, Flag-Aldob (UniProt P05062).
T1 sequence: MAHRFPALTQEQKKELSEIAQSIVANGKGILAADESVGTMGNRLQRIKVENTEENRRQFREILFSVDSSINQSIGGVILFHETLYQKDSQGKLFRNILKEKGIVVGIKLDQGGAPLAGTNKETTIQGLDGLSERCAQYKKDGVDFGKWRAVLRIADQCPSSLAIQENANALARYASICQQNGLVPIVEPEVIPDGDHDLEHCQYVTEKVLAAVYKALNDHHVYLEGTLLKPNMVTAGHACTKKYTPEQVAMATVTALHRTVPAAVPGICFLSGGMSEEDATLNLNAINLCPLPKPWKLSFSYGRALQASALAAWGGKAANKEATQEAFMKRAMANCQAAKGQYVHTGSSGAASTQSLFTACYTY
Briefly: co-IP; lysates of Huh7 cells transfected with the indicated constructs (and siRNAs) or of LM3-Aldob cells; anti-Flag or anti-Myc affinity gel or anti-Akt1 antibody with Protein A/G beads, overnight at 4°C, washed 4 times; in some panels cells serum-starved then 0.1 μM insulin or 100 ng/ml EGF, or MK2206 (1 μM) for 24 hours.

Protein sequences, listed by entry. Tags and fused reporters are not part of them. Lines headed by an entry give the natural chain unless they say otherwise; changes in a name come on top.
UniProt P67775: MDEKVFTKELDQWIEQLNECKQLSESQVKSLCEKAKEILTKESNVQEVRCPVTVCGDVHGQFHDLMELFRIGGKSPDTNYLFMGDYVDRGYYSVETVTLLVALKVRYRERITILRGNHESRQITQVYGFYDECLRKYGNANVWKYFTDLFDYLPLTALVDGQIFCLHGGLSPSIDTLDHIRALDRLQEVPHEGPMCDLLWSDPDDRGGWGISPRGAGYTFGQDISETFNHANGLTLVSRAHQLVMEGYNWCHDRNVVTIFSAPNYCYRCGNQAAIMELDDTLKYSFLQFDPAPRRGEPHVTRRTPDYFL
UniProt P31750: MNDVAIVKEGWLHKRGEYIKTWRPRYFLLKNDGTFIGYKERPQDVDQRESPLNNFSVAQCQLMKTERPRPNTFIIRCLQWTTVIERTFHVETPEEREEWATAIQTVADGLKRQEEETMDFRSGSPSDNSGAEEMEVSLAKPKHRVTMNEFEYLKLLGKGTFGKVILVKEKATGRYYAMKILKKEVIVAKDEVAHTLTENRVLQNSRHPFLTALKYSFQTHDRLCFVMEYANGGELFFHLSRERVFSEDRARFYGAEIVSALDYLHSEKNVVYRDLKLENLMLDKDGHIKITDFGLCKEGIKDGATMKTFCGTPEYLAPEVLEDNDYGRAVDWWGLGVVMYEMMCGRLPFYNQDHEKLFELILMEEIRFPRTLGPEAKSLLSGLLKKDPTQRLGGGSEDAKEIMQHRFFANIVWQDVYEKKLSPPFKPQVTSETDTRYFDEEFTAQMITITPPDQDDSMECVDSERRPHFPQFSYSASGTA
UniProt P31749: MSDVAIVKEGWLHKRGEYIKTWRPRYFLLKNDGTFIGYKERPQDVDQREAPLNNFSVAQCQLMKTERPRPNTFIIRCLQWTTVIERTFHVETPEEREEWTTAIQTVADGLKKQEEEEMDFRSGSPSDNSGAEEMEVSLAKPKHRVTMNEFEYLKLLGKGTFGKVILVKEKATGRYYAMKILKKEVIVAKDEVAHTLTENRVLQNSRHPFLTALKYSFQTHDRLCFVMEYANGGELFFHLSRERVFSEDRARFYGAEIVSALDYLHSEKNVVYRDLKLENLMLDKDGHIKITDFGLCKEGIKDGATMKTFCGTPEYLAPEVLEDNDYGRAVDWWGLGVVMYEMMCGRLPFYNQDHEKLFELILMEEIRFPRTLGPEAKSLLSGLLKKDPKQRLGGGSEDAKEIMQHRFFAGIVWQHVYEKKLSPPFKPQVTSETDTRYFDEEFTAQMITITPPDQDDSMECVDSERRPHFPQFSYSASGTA
UniProt P63330: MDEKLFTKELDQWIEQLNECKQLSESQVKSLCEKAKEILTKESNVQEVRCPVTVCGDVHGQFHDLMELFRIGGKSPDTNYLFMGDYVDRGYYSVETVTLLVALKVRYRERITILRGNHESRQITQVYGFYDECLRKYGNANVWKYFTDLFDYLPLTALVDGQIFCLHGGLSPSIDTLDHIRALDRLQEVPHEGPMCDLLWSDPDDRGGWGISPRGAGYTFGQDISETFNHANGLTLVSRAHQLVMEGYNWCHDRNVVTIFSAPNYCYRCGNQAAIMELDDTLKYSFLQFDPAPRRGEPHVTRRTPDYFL

For experiment [1], the target named is Flag-PP2A-C (UniProt P67775). The experiment is described as above.
For experiment [2], the target named is Akt1, endogenous in mouse liver (mouse (endogenous in liver tissue)) (UniProt P31750). Briefly: co-IP; endogenous proteins in liver tissue lysates of WT and ALDOB KO mice; anti-Aldob or anti-Akt1 antibody overnight at 4°C, Protein A/G Sepharose beads, IgG as negative control.
For another experiment, the target named is GST-Akt1 (UniProt P31749). Put plainly: pull-down; GST pull-down: recombinant GST-Akt1 (GST as control) with whole cell lysate of Flag-PP2A-C-transfected Huh7 cells, with recombinant WT-Aldob or Aldob-R304A added; only the target purified.
Experiment [3] concerns the target Akt1, endogenous in human liver tissue (human (endogenous in liver tissue)) (UniProt P31749). Put plainly: co-IP; endogenous proteins in lysates of 2 pairs of human HCC tumor and adjacent normal liver tissues; anti-Aldob and anti-Akt1 IP, IgG as negative control.
Experiment [4] addresses Flag-PP2A-C (UniProt P67775). Briefly: co-IP; lysates of Huh7 cells transfected with the indicated constructs (and siRNAs) or of LM3-Aldob cells; anti-Flag or anti-Myc affinity gel or anti-Akt1 antibody with Protein A/G beads, overnight at 4°C, washed 4 times; in some panels cells serum-starved then 0.1 μM insulin or 100 ng/ml EGF, or MK2206 (1 μM) for 24 hours. This is another data set of the same source.

Like-named read-outs stand apart in the source and are kept apart here. These are yes or no findings as the source states them, for the method shown. Binding seen in cells or lysates may run through a third protein. A result given as binding can be weak or reduced; the word gives no strength. For some of these results: Tags and fused reporters may be left off the sequences shown.

Seven molecules from PMC7744066 can be followed below.

Turning to “catalytic subunit of PP2A (PP2A-C), endogenous in Huh7 (from UniProt P67775)”, the binding result with Flag-Aldob is reported as “binds”.
“Akt1 in Huh7 lysate of S7D Fig (from UniProt P31749 1-480)”: in the experiment with Flag-PP2A-C [1], the binding entry was “binds”.
As for “catalytic subunit of PP2A (PP2A-C), endogenous in mouse liver (from UniProt P63330)”, the binding entry in experiment [2] is recorded as “binds”.
Regarding structural subunit of PP2A (PP2A-A), in the experiment with Flag-Aldob, the binding result was “no binding”.
As for Flag-PP2A-C (from UniProt P67775), in the experiment with GST-Akt1, the binding entry was “binds”.
As for “catalytic subunit of PP2A (PP2A-C), endogenous in human liver tissue (from UniProt P67775)”, the binding entry in experiment [3] is recorded as “binds”.

B1: Aldob, ectopically expressed in Huh7 (tag not told for the experiment) (protein, UniProt P05062 1-364)
chain: T1 sequence
On to B1, for which the binding result in the experiment with Flag-PP2A-C [4] is listed as “binds”.
